Experimental data taken from PMC5384083.

Molecular target: CBP, endogenous [human (endogenous in MCF7 and MDA-MB-453)]
Test: co-immunoprecipitation (IP T7, western blot CBP), band intensity given
Settings: MDA-MB-453 cells; cell lysates (800 ug)

Substance | response
T7 tagged FoxM1 wild type (WT) mutant S715D; S724D [not stated] / CBP, endogenous [human (endogenous in MCF7 and MDA-MB-453)] chain 1 S715D, chain 1 S724D | 64.9
T7 tagged FoxM1 wild type (WT) mutant T596A [not stated] / CBP, endogenous [human (endogenous in MCF7 and MDA-MB-453)] chain 1 T596A | 22.1
